Experimental data published in publication PMC9445010.

B1: PmoA (protein, UniProt Q607G3 1-247)
chain: MSAAQSAVRSHAEAVQVSRTIDWMALFVVFFVIVGSYHIHAMLTMGDWDFWSDWKDRRLWVTVTPIVLVTFPAAVQSYLWERYRLPWGATVCVLGLLLGEWINRYFNFWGWTYFPINFVFPASLVPGAIILDTVLMLSGSYLFTAIVGAMGWGLIFYPGNWPIIAPLHVPVEYNGMLMSIADIQGYNYVRTGTPEYIRMVEKGTLRTFGKDVAPVSAFFSAFMSILIYFMWHFIGRWFSNERFLQST
B2: PmoB (protein, UniProt G1UBD1 33-414)
chain: HGEKSQAAFMRMRTIHWYDLSWSKEKVKINETVEIKGKFHVFEGWPETVDEPDVAFLNVGMPGPVFIRKESYIGGQLVPRSVRLEIGKTYDFRVVLKARRPGDWHVHTMMNVQGGGPIIGPGKWITVEGSMSEFRNPVTTLTGQTVDLENYNEGNTYFWHAFWFAIGVAWIGYWSRRPIFIPRLLMVDAGRADELVSATDRKVAMGFLAATILIVVMAMSSANSKYPITIPLQAGTMRGMKPLELPAPTVSVKVEDATYRVPGRAMRMKLTITNHGNSPIRLGEFYTASVRFLDSDVYKDTTGYPEDLLAEDGLSVSDNSPLAPGETRTVDVTASDAAWEVYRLSDIIYDPDSRFAGLLFFFDATGNRQVVQIDAPLIPSFM

Target: PmoC (Methylococcus capsulatus (Bath) (endogenous in M. capsulatus (Bath)))
Test: cryo-EM structure; cryoET with subtomogram averaging of isolated M. capsulatus (Bath) membranes, no detergent; 25 mM PIPES pH 7.3, 250 mM NaCl; single trimer 4.8 Å, 7-particle unit 10 Å, three trimers 12 Å; 3-fold symmetry applied

| Binder | binding |
| --- | --- |
| B1 | binds |
| B2 | binds |

These are yes or no findings as the source states them, for the method shown. Binding calls can cover weak binding; strength is not graded here.
